Measured data: PubChem BioAssay AID1159579 (Peter MacCallum Cancer Centre, 2015)

- Test: 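Follow-up screen seeking modulators of motility in lymphatic endothelial cells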 (follow-up of hits)
- Cell system: human dermal lymphatic endothelial cells
- Reagents: single siRNA against human genes, 25 nM
- Measured: 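Scratch wound imaging measuring area filled by moving cells plus nuclei number, averaged over two wells and scaled to mock-transfected controls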
- Reading the numbers: migration relative to mock: higher = more migration into the scratch; mean nuclei count: higher = more cells remaining
- Hit rule: 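a ratio of at most 0.6 or at least 1.3 marks altered migration and an active call; a mean nuclei count under 3300 forces an inactive call regardless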
- Calls: active = migration changed (impaired or accelerated); inactive = no migration change, or too few cells
The deposit covers about 2,000 reagents; this is an unselected part. 549 of them (27%) count as active. 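Some migration ratios are negative; siRNAs with too few cells are inactive whatever their migration ratio.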 Reagents against one gene are numbered here. No sequences are given here. The record does not give: the time to read-out.

| target | siRNA no. | migration relative to mock | migration and cell number class | mean nuclei count | Call |
| --- | --- | --- | --- | --- | --- |
| SEPTIN6 (septin 6) | 1 | 0.61 | no change in migration or cell number | 4624 | inactive |
| SEPTIN6 (septin 6) | 2 | -0.6 | too few cells; migration not scored | 2648 | inactive |
| SEPTIN6 (septin 6) | 3 | 0.54 | migration reduced | 4761 | active |
| SEPTIN6 (septin 6) | 4 | 0.74 | no change in migration or cell number | 4624 | inactive |
| ANKRD13C (ankyrin repeat domain 13C) | 1 | 0.96 | no change in migration or cell number | 6008 | inactive |
| ANKRD13C (ankyrin repeat domain 13C) | 2 | 0.3 | migration reduced | 4370 | active |
| ANKRD13C (ankyrin repeat domain 13C) | 3 | 1.06 | no change in migration or cell number | 5900 | inactive |
| ANKRD13C (ankyrin repeat domain 13C) | 4 | 0.86 | no change in migration or cell number | 6798 | inactive |
| PHACTR1 (phosphatase and actin regulator 1) | 1 | 0.78 | no change in migration or cell number | 6164 | inactive |
| PHACTR1 (phosphatase and actin regulator 1) | 2 | 0.95 | no change in migration or cell number | 5786 | inactive |
| PHACTR1 (phosphatase and actin regulator 1) | 3 | 0.36 | migration reduced | 3830 | active |
| PHACTR1 (phosphatase and actin regulator 1) | 4 | 0.78 | no change in migration or cell number | 5031 | inactive |
| MINK1 (misshapen like kinase 1) | 1 | 0.63 | no change in migration or cell number | 6475 | inactive |
| MINK1 (misshapen like kinase 1) | 2 | 0.72 | no change in migration or cell number | 5298 | inactive |
| MINK1 (misshapen like kinase 1) | 3 | 0.82 | no change in migration or cell number | 5814 | inactive |
| MINK1 (misshapen like kinase 1) | 4 | -1.17 | too few cells; migration not scored | 3139 | inactive |
| PLPP3 (phospholipid phosphatase 3) | 1 | 0.8 | no change in migration or cell number | 6739 | inactive |
| PLPP3 (phospholipid phosphatase 3) | 2 | 0.96 | no change in migration or cell number | 6368 | inactive |
| PLPP3 (phospholipid phosphatase 3) | 3 | 0.24 | migration reduced | 6990 | active |
| PLPP3 (phospholipid phosphatase 3) | 4 | 0.44 | migration reduced | 6697 | active |
| ZNF76 (zinc finger protein 76) | 1 | 0.68 | no change in migration or cell number | 6655 | inactive |
| ZNF76 (zinc finger protein 76) | 2 | -0.54 | migration reduced | 3714 | active |
| ZNF76 (zinc finger protein 76) | 3 | 0.44 | migration reduced | 3652 | active |
| ZNF76 (zinc finger protein 76) | 4 | 0.86 | no change in migration or cell number | 5852 | inactive |
| ITPKA (inositol-trisphosphate 3-kinase A) | 1 | 1.01 | no change in migration or cell number | 5234 | inactive |
| ITPKA (inositol-trisphosphate 3-kinase A) | 2 | 0.24 | migration reduced | 4998 | active |
| ITPKA (inositol-trisphosphate 3-kinase A) | 3 | -0.06 | migration reduced | 3806 | active |
| ITPKA (inositol-trisphosphate 3-kinase A) | 4 | 1.12 | no change in migration or cell number | 6891 | inactive |
| SCGB1C1 (secretoglobin family 1C member 1) | 1 | 0.89 | no change in migration or cell number | 4704 | inactive |
| SCGB1C1 (secretoglobin family 1C member 1) | 2 | 0.99 | no change in migration or cell number | 5317 | inactive |
| SCGB1C1 (secretoglobin family 1C member 1) | 3 | 0.12 | migration reduced | 3866 | active |
| SCGB1C1 (secretoglobin family 1C member 1) | 4 | 0.13 | migration reduced | 4788 | active |
| RDH11 (retinol dehydrogenase 11) | 1 | 0.2 | migration reduced | 6992 | active |
| RDH11 (retinol dehydrogenase 11) | 2 | 0.74 | no change in migration or cell number | 6284 | inactive |
| RDH11 (retinol dehydrogenase 11) | 3 | 0.64 | no change in migration or cell number | 5341 | inactive |
| RDH11 (retinol dehydrogenase 11) | 4 | 0.76 | no change in migration or cell number | 6528 | inactive |

Part of the list above, limited to “migration relative to mock”.
RDH11 (retinol dehydrogenase 11) #2: 0.74
RDH11 (retinol dehydrogenase 11) #3: 0.64
RDH11 (retinol dehydrogenase 11) #4: 0.76
